PubChem BioAssay (EPA / NIEHS)
Several values for one entry are separate records, joined by “and”; a condition that tells them apart may be missing. Identical values can stand only once. This list was built around the results that the source calls inconclusive (neither active nor inactive); the mix of calls is not that of the screen. For some assays here: Potencies beside an inconclusive call are fits to weak or partial responses and may not hold up. The source holds several records for some structures; these can differ, active in one and inactive in another. Activity calls are given as the source filed them. Rule for the calls: active = hit-call score of the fitted dose curve at least 0.9, where 1 is the maximum; inconclusive = response in the unintended direction; inactive = score below 0.9.

The chains behind the UniProt entries cited, without tags or fusion partners. Where a name states a change or a piece, a line headed by the entry shows the natural chain unless it says otherwise.
UniProt P03372, whole entry, looked up: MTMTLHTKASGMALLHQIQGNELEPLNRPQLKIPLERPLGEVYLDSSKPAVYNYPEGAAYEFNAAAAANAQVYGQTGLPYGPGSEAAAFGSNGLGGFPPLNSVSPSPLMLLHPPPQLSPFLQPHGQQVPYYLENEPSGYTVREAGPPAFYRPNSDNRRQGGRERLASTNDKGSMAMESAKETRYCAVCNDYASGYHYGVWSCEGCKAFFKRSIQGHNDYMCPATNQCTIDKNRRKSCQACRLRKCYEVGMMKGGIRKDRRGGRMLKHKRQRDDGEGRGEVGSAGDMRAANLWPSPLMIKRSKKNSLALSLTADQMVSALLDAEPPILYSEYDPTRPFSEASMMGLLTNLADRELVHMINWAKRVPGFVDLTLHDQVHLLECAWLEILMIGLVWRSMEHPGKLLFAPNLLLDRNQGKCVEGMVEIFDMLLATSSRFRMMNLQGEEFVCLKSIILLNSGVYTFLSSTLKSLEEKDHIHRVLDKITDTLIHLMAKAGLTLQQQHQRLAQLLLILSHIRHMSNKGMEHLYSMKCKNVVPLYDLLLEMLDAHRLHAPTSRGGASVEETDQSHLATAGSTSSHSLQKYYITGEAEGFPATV
UniProt P10276, whole entry, looked up: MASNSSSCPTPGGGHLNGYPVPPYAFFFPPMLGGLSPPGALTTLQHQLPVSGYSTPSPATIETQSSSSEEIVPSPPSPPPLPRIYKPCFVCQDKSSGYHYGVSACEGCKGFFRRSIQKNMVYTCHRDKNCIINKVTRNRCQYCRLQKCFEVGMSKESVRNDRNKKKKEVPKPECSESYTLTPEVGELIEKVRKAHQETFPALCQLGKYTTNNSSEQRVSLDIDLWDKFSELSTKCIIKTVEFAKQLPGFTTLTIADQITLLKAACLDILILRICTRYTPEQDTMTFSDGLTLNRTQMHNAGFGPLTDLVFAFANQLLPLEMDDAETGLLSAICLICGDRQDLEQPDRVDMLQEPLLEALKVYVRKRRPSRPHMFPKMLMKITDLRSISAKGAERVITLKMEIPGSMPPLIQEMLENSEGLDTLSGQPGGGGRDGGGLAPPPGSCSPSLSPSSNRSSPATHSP
UniProt Q07869: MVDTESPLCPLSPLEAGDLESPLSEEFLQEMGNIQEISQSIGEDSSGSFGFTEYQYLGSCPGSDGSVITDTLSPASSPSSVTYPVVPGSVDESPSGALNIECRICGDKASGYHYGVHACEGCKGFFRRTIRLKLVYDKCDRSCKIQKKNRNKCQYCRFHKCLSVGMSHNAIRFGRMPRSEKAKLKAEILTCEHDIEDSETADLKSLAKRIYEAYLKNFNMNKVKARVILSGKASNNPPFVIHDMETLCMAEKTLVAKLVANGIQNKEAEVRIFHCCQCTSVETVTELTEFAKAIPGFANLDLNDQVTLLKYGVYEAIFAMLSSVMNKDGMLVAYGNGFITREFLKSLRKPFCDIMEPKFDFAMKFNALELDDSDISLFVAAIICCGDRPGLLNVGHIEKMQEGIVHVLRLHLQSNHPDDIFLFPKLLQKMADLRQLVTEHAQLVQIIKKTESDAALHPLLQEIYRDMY
UniProt Q92731, whole entry, looked up: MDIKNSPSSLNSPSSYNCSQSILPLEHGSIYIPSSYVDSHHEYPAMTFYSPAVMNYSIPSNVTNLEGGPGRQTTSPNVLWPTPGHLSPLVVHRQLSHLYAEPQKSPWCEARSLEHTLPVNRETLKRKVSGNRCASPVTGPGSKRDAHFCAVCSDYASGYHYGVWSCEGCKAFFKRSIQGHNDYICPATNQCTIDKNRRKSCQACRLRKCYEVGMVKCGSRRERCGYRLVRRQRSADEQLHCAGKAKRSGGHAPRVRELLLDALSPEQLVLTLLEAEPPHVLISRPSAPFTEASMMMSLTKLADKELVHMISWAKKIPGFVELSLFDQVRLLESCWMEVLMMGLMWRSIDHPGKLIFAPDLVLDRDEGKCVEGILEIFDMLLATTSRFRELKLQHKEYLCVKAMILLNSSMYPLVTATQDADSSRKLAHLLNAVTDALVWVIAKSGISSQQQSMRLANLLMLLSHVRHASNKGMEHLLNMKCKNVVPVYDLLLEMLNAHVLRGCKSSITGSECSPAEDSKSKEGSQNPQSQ
UniProt P22199: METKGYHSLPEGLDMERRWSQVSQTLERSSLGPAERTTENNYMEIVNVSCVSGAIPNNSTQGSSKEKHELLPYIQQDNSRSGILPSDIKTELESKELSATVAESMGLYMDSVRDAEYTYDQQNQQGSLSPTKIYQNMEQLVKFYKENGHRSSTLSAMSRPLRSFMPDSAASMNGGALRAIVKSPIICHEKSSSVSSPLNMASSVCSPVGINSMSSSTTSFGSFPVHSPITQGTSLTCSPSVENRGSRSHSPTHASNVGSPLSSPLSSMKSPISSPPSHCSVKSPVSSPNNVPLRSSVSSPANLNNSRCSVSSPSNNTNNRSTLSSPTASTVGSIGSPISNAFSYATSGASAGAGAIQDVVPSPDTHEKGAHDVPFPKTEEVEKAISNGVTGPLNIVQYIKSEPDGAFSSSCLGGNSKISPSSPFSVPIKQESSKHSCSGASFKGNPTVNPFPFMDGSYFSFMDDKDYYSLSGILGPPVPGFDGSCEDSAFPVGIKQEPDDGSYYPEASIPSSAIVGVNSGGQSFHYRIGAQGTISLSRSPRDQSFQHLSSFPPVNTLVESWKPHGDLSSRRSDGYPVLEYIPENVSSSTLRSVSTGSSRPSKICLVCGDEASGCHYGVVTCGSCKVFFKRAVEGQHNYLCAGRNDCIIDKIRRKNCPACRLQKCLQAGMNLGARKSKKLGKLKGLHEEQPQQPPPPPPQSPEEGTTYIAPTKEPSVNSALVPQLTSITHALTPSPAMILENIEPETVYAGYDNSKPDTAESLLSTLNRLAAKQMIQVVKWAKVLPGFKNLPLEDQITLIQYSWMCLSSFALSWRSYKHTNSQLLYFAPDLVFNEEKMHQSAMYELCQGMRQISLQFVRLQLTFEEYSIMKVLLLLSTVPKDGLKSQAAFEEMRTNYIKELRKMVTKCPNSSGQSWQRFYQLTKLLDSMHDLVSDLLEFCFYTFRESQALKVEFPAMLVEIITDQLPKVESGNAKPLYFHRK
UniProt P10275: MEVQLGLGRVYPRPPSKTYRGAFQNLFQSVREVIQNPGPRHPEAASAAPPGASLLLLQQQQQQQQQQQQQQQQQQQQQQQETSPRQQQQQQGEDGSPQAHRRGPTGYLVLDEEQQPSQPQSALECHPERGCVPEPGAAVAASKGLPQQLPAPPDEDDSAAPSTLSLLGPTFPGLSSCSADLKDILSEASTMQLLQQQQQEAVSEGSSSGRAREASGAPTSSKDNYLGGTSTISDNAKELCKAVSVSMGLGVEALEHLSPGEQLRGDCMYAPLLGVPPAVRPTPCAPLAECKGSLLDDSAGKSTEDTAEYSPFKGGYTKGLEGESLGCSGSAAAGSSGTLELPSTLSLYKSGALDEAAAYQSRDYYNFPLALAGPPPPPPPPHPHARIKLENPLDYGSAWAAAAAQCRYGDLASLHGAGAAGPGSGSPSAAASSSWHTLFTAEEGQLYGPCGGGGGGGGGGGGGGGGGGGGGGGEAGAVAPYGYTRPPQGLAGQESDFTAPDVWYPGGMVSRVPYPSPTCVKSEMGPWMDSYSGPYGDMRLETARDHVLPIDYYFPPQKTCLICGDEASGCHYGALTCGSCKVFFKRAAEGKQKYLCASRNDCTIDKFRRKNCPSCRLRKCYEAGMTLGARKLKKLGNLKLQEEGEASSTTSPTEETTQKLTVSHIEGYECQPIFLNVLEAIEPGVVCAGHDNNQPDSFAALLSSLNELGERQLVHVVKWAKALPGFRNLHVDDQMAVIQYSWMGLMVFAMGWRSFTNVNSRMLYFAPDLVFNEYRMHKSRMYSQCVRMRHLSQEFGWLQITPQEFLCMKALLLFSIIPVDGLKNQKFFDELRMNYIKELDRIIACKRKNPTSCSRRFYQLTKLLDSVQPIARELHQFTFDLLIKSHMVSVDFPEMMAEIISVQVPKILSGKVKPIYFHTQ
UniProt P06401: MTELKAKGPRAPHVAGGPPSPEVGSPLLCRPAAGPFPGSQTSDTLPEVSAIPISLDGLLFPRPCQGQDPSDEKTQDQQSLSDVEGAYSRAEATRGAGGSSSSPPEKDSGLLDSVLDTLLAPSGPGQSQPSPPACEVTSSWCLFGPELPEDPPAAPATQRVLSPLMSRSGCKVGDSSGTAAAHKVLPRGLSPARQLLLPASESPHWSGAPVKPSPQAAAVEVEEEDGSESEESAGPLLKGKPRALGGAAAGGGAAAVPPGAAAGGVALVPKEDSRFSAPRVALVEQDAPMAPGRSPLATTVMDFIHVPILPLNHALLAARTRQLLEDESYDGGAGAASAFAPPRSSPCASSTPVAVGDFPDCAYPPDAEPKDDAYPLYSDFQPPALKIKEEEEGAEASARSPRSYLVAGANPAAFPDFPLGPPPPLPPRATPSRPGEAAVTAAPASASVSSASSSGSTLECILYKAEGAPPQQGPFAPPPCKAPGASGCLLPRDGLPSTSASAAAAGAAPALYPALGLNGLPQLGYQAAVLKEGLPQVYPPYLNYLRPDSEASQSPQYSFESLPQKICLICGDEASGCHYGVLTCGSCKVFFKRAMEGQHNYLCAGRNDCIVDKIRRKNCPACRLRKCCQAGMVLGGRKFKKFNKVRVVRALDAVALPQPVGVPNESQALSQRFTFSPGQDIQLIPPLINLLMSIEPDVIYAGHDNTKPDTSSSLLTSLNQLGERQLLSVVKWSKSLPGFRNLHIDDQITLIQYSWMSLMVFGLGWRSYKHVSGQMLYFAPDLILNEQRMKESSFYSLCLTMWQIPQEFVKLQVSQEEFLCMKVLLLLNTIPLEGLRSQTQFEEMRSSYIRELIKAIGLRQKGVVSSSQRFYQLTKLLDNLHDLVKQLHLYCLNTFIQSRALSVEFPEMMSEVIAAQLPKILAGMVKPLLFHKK

Key:
[1] = target: Estrogen receptor (Homo sapiens) (UniProt P03372); assay: OT_ER_ERaERa_0480: Odyssey Thera (OT) 8-hour HEK293T Protein-Complementation Assay for Estrogen Receptor-alpha/-alpha Homodimer (AID 2283351);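 note: rise in fluorescence from reassembled reporter fragments on ERα LBD homodimer in nucleus or whole cell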
Summary of the method: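 The readout is complementation of fragments fused to the human ER alpha ligand-binding domain (aa 310-547), stably expressed in HEK293T cells. After 8 h of exposure, the increase in nuclear/cytoplasmic fluorescence was measured by laser scanning cytometry and fitted relative to DMSO.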

[2] = target: Retinoic acid receptor alpha (Homo sapiens) (UniProt P10276); assay: NVS_NR_hRAR_Antagonist: NovaScreen (NVS) Nuclear Receptor Binding Assay for human Retinoic Acid Alpha Receptor Antagonism (RAR) (AID 2283358)
Summary of the method: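 Cell-free TR-FRET binding assay with extracted human RARalpha in antagonist mode, read 2 h after dosing. Loss of signal was fitted relative to DMSO; the primary screen used 25 uM in duplicate, with concentration series on follow-up.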

[3] = target: human Peroxisome Proliferator-activated Receptor alpha (PPARa), PPARA (gene 5465) (UniProt Q07869); assay: NVS_NR_hPPARa: NovaScreen (NVS) Nuclear Receptor Binding Assay for human Peroxisome Proliferator-activated Receptor alpha (PPARa) (AID 2283359);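 note: activity means loss of TR-FRET signal versus DMSO baseline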
Summary of the method: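 Cell-free TR-FRET binding assay with extracted PPARα protein, read 1 h after dosing. Primary screen in duplicate at 25 uM, with actives retested in concentration series. Loss of signal versus DMSO.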

[4] = target: T1, Estrogen receptor (Homo sapiens) + Estrogen receptor beta (Homo sapiens) (UniProt P03372+Q92731); assay: OT_ER_ERaERb_0480: Odyssey Thera (OT) 8-hour HEK293T Protein-Complementation Assay for Estrogen Receptor-alpha/-beta Heterodimer (AID 2283352)
Summary of the method: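 HEK293T cells expressing ER-alpha/ER-beta LBD fusions to complementary reporter fragments were dosed with compound for 8 hours. Heterodimer formation was read as increased nuclear (agonist) or nuclear plus cytoplasmic (antagonist) mean fluorescence intensity versus DMSO vehicle.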

[5] = target: T1, Estrogen receptor (Homo sapiens) + Estrogen receptor beta (Homo sapiens); assay: OT_ER_ERaERb_1440: Odyssey Thera (OT) 24-hour HEK293T Protein-Complementation Assay for Estrogen Receptor-alpha/-beta Homodimer (AID 2283356);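 note: heteromer of ER alpha and ER beta binding domains; hits raise reporter fluorescence and both agonists and antagonists give an increase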
Summary of the method: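 HEK293T cells stably expressing a PCA pair of ERα LBD (aa 310-547) and ERβ LBD (aa 263-489) were dosed for 24 h. Fluorescence intensity increase versus DMSO vehicle was fitted as gain-of-signal.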

[6] = target: rat Mineralocorticoid Receptor (MR), Nr3c2 (gene 25672) (UniProt P22199); assay: NVS_NR_rMR: NovaScreen (NVS) Nuclear Receptor Binding Assay for rat Mineralocorticoid Receptor (MR) (AID 2283355)
Summary of the method: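 Cell-free radioligand binding to mineralocorticoid receptor from adrenalectomized rat brain supernatant, scintillation counting after 24 h. Primary screen in duplicate at 25 uM; actives retested in concentration series. Loss of specific binding versus DMSO.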

[7] = target: Androgen Receptor/SRC-1 Co-activator, AR (gene 367) (UniProt P10275); assay: OT_AR_ARSRC1_0480: Odyssey Thera (OT) 8-hour HEK293T Protein-Complementation Assay for Androgen Receptor/SRC-1 Co-activator (AID 2283354);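 note: hits raise the complementation signal above DMSO so AC50 marks enhancers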
Summary of the method: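 HEK293T cells stably expressing AR and SRC-1 fused to Venus YFP fragments, imaged 8 h after dosing. Complementation fluorescence scored as nuclear/cytoplasmic ratio at 488 nm in at least 400 cells per image; gain fitted versus DMSO.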

[8] = target: Estrogen receptor beta (Homo sapiens) (UniProt Q92731); assay: OT_ER_ERbERb_0480: Odyssey Thera (OT) 8-hour HEK293T Protein-Complementation Assay for Estrogen Receptor-beta/-beta Homodimer (AID 2283357);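 note: active means signal gain over DMSO baseline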
Summary of the method: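 Fluorescence intensity, nuclear for agonists and nuclear plus cytoplasmic for antagonists, was quantified by laser scanning cytometry versus vehicle after 8 h treatment. The cells were HEK293T stably carrying ER beta LBD fragment-complementation partners.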

PGR (gene 5241) = PGR (gene 5241) (UniProt P06401); assay: NVS_NR_hPR: NovaScreen (NVS) Nuclear Receptor Binding Assay for human Progestron Receptor (PR) (AID 2283360);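 note: active means loss of bound radioligand signal versus DMSO baseline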
Summary of the method: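 Radioligand competition binding on receptor extracted from T47D cells, read by scintillation counting 18 h after dosing. Loss of signal versus DMSO; primary screen in duplicate at 25 uM, actives followed in concentration series.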

CCCCOCCOCCOCCOCCO
AC50 [1]: inconclusive: 50 µM

CCN(Cc1cccc(S(=O)(=O)O)c1)c1ccc(C(=C2C=CC(=[N+](CC)Cc3cccc(S(=O)(=O)O)c3)C=C2)c2ccccc2S(=O)(=O)[O-])cc1
AC50 [1]: inconclusive: 32.2 µM

NC(=O)Nc1ccccc1
AC50 [1]: inconclusive: 47.8 µM
outcome [2]: inactive

CCCCCCCCOC(=O)c1cc(O)c(O)c(O)c1
AC50 [1]: active: 12.1 µM
AC50 [3]: active: 19 µM

Clc1ccccc1C(c1ccccc1)(c1ccccc1)n1ccnc1
AC50 [4]: inconclusive: 90.9 µM

NCCCN1CCOCC1
AC50 [4]: inconclusive: 50 µM

OCCOCCOCCOCCO
AC50 [1]: inconclusive: 50 µM
outcome [5]: inactive

CCOCC(C)O (centres undefined)
AC50 [1]: inconclusive: 50 µM
outcome [4]: inactive

Nc1ccc(Nc2ccccc2)cc1
AC50 [1]: inconclusive: 50 µM

COc1ccc(-c2coc3cc(O)cc(O)c3c2=O)cc1
AC50 [1]: active: 12.3 µM

COc1cccc(-c2ccc(/C=C\CN3CCCCCC3)cc2Cl)c1
AC50 [1]: inconclusive: 45.2 µM
outcome [4]: inactive
AC50 [6]: inconclusive: 22.6 µM

C#C[C@]1(O)CC[C@H]2[C@@H]3CCC4=CC(=O)CC[C@@H]4[C@H]3CC[C@@]21C
outcome [4]: inactive

CCCC(O)C(CC)CO (centres undefined)
outcome [1]: inactive

O=C(O)C1(C(=O)Nc2ccc(Cl)cc2Cl)CC1
AC50 [1]: inconclusive: 50 µM
AC50 [7]: inconclusive: 50 µM
outcome [2]: inactive

O=C(c1ccccc1)c1ccc(O)cc1O
AC50 [1]: active: 22.7 µM

N#Cc1ccccc1O
outcome [1]: inactive

CC=C1CC2C=CC1C2 (centres undefined)
outcome [1]: inactive

BrC1CCC(Br)C(Br)CCC(Br)C(Br)CCC1Br (centres undefined)
outcome [1]: inactive
AC50 [4]: inconclusive: 43.5 µM
outcome [8]: inactive

CCCCCC(=O)O[C@]1(C(C)=O)CC[C@H]2[C@@H]3CCC4=CC(=O)CC[C@]4(C)[C@H]3CC[C@@]21C
AC50 [1]: inconclusive: 49.8 µM

CN(Cc1cnc2nc(N)nc(N)c2n1)c1ccc(C(=O)N[C@@H](CCC(=O)O)C(=O)O)cc1
outcome [1]: inactive
outcome [6]: inactive
outcome [5]: inactive
AC50 [8]: inconclusive: 50 µM
AC50 [2]: inconclusive: 43.2 µM

CCCCCc1ccc(N)cc1
AC50 [1]: active: 67 µM and active: 67.6 µM
AC50 [4]: active: 46.8 µM and active: 40 µM and active: 53.9 µM

O=C(O)c1ccccc1-n1cc(C(=O)O)c(=O)c2cc(Nc3c(F)cc(F)cc3Cl)c(Cl)cc21
AC50 [1]: inconclusive: 89.5 µM
AC50 [8]: inconclusive: 50 µM

CC(=O)OC(C)(C)C
AC50 [1]: inconclusive: 50 µM

CCOc1ccc2c(c1)C(C)=CC(C)(C)N2
outcome [1]: inactive

COc1ccc(OC(F)(F)F)cc1CN[C@H]1CCCN[C@H]1c1ccccc1
AC50 [1]: inconclusive: 50 µM
AC50 [8]: inconclusive: 50 µM

CN(C)C(=O)C1(N2CCCCC2)CCN(CC[C@@]2(c3ccc(Cl)c(Cl)c3)CN(C(=O)c3ccccc3)CCO2)CC1
AC50 [1]: inconclusive: 47.2 µM
AC50 [4]: inconclusive: 47.2 µM
AC50 [5]: inconclusive: 47.2 µM
AC50 [8]: inconclusive: 47.2 µM
outcome (PGR (gene 5241)): inactive

O=C(c1ccc(O)cc1O)c1ccc(O)cc1O
AC50 [1]: active: 6.81 µM and active: 6.26 µM and active: 6.64 µM
AC50 (PGR (gene 5241)): active: 11.2 µM

O=C(OCc1ccccc1)c1ccccc1O
AC50 [1]: active: 63 µM
AC50 [8]: active: 54.6 µM

C=CCCCCCCCCC(=O)O
outcome [4]: inactive

C1CCCNCC1
AC50 [4]: inconclusive: 50 µM

CCOC(=O)CC
AC50 [1]: inconclusive: 50 µM
AC50 [4]: inconclusive: 50 µM

CCCCCCCCCCCCS
outcome [1]: inactive

Cn1cnc([N+](=O)[O-])c1Sc1ncnc2nc[nH]c12
outcome [1]: inactive
outcome [3]: inactive

CC(C)(C)c1cc(CCC(=O)OCC(COC(=O)CCc2cc(C(C)(C)C)c(O)c(C(C)(C)C)c2)(COC(=O)CCc2cc(C(C)(C)C)c(O)c(C(C)(C)C)c2)COC(=O)CCc2cc(C(C)(C)C)c(O)c(C(C)(C)C)c2)cc(C(C)(C)C)c1O
AC50 [1]: inconclusive: 22.2 µM
AC50 [4]: inconclusive: 22.2 µM
outcome [8]: inactive

CCCC(=O)OCC
AC50 [1]: inconclusive: 50 µM

CCCCCCCCCCCCCCCC(=O)OC[C@H](O)[C@H]1OC(=O)C(O)=C1O
AC50 [1]: inconclusive: 50 µM

O=C(OCc1ccccc1)c1ccc(O)cc1
AC50 [4]: active: 4.92 µM

CC[C@@H]1C[C@H](N(Cc2cc(C(F)(F)F)cc(C(F)(F)F)c2)C(C)=O)c2cc(C(F)(F)F)ccc2N1C(=O)OC(C)C
AC50 [1]: inconclusive: 50 µM
AC50 [4]: inconclusive: 50 µM
AC50 [3]: inconclusive: 25 µM

COC(=O)c1ccccc1O
AC50 [1]: inconclusive: 50 µM

O=Nc1ccc(Nc2ccccc2)cc1
AC50 [7]: active: 11 µM

CCCCCCCC/C=C\CCCCCCCC(=O)O
AC50 [2]: inconclusive: 0.812 µM

COCCOC[C@H](CC1(C(=O)NC2CCC(C(=O)O)CC2)CCCC1)C(=O)Oc1ccc2c(c1)CCC2 (some centres undefined)
AC50 [4]: inconclusive: 50 µM
AC50 [3]: inconclusive: 25 µM

O=C1OC2(c3ccccc31)c1cc(Br)c(O)c(Br)c1Oc1c2cc(Br)c(O)c1Br
AC50 [4]: active: 78.2 µM
AC50 [8]: inconclusive: 46.5 µM
